Data taken from the supplement of paper PMC12819154, “High-throughput peptide-centric local stability assay extends protein–ligand identification to membrane proteins, tissues and bacteria” (Nature Structural & Molecular Biology, 2025).
Some of the results follow. Most values lie at the level of the controls, where differences are scatter.

Sequences of proteins named here, by UniProt entry; tags and fusion partners are left off. A change or cut given only in a name is not applied to a line headed by its entry.
UniProt Q78JT3: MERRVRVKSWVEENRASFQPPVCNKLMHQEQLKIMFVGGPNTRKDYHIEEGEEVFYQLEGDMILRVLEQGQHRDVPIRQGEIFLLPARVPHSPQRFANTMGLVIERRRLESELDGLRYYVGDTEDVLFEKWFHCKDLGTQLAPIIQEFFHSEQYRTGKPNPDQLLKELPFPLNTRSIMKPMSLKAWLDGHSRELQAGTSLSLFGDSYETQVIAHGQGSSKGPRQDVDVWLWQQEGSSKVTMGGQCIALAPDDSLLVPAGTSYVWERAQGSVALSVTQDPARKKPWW
UniProt Q6PD19: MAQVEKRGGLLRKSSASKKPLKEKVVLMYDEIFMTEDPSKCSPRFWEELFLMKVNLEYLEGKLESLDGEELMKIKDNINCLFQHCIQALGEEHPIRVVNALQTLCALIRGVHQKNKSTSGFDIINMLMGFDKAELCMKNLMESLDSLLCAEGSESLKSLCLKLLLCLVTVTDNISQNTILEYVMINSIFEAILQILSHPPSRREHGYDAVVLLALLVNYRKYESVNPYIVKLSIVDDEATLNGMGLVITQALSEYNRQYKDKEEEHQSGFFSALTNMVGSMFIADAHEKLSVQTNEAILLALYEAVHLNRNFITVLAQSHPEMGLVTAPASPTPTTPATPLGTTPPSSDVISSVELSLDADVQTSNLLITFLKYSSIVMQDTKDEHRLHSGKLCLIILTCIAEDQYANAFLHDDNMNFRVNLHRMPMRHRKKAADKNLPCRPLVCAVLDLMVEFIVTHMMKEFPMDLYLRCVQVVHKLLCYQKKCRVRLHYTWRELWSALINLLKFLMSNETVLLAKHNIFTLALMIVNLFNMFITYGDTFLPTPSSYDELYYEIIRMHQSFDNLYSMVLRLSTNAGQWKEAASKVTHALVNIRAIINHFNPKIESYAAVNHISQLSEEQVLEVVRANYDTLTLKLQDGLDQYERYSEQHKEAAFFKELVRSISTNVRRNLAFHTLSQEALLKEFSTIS
UniProt Q8BGB5: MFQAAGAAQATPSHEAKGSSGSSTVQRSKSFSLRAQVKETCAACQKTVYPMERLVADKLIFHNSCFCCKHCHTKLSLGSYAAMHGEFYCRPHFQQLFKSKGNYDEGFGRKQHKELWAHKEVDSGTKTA
UniProt Q80U49: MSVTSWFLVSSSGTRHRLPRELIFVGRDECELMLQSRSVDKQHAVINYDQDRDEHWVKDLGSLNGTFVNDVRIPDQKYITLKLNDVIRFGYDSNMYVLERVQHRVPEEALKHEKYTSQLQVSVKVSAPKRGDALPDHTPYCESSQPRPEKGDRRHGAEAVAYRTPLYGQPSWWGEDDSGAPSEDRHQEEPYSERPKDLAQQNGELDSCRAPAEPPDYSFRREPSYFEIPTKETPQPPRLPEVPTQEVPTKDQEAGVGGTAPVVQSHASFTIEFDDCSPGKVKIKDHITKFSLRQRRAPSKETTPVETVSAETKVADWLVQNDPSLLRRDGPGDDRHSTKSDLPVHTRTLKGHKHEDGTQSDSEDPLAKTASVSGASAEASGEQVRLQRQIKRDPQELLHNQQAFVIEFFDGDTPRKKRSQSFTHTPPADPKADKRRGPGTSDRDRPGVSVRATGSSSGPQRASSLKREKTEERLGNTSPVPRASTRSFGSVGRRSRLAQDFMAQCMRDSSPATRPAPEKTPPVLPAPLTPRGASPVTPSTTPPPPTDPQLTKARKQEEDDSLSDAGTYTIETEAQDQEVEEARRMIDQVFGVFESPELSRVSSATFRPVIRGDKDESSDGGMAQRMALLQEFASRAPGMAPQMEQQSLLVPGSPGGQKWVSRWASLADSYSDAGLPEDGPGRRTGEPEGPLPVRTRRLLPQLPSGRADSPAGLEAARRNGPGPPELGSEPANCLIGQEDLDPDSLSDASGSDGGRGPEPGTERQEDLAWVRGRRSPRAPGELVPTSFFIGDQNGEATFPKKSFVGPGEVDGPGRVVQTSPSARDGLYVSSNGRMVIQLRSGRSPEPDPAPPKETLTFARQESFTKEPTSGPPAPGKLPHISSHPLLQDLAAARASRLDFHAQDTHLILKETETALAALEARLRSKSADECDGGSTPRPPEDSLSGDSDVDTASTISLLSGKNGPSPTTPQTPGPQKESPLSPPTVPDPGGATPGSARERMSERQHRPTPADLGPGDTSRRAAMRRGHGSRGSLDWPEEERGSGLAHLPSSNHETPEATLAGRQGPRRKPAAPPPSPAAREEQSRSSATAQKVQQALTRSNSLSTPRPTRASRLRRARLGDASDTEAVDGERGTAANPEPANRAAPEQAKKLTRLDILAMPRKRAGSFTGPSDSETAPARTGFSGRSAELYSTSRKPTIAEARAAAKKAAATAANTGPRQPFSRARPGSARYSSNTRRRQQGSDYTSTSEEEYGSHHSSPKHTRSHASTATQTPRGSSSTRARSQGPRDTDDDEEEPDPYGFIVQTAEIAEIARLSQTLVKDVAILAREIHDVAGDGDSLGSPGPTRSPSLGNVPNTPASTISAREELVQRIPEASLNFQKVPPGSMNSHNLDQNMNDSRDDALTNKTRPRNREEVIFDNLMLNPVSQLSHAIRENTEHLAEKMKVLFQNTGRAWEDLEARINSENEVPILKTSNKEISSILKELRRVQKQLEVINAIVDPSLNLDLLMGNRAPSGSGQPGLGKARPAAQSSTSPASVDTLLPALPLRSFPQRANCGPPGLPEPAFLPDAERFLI
UniProt Q6PDY2: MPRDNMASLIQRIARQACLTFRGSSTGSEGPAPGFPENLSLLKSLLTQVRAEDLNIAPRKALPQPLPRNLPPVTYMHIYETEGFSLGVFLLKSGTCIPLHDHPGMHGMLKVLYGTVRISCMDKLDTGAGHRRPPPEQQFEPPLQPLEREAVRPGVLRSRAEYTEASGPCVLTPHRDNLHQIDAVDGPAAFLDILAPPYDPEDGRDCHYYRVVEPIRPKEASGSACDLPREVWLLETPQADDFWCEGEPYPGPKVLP
UniProt Q80X80: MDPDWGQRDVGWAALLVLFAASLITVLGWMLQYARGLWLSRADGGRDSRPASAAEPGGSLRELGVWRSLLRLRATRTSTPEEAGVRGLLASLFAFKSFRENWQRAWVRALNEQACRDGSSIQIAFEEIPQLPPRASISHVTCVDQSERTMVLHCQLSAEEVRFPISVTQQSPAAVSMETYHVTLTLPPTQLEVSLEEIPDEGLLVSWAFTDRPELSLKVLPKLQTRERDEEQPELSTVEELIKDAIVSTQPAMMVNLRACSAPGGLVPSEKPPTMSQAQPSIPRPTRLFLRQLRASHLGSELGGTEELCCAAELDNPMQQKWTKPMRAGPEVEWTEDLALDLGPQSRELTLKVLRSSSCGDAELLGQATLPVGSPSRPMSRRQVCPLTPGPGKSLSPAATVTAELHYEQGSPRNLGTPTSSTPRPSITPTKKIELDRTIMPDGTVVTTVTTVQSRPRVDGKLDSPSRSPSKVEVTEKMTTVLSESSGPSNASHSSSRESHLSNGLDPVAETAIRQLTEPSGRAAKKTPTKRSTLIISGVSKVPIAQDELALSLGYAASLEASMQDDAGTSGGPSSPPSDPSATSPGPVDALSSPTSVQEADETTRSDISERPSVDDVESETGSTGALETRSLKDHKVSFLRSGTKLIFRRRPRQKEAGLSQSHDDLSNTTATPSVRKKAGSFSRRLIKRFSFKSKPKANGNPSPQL
UniProt Q8BGF3, whole entry: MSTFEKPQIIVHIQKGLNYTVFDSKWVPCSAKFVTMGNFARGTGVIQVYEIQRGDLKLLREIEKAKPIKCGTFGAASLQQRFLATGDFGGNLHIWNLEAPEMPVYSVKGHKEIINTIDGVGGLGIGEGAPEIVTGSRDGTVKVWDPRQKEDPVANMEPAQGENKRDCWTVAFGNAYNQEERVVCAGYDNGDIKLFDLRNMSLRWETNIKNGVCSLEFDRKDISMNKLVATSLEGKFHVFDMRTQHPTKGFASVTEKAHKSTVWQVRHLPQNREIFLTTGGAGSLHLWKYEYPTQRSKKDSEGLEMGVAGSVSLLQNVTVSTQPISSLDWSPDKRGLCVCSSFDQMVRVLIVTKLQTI
UniProt Q6ZQ08, whole entry: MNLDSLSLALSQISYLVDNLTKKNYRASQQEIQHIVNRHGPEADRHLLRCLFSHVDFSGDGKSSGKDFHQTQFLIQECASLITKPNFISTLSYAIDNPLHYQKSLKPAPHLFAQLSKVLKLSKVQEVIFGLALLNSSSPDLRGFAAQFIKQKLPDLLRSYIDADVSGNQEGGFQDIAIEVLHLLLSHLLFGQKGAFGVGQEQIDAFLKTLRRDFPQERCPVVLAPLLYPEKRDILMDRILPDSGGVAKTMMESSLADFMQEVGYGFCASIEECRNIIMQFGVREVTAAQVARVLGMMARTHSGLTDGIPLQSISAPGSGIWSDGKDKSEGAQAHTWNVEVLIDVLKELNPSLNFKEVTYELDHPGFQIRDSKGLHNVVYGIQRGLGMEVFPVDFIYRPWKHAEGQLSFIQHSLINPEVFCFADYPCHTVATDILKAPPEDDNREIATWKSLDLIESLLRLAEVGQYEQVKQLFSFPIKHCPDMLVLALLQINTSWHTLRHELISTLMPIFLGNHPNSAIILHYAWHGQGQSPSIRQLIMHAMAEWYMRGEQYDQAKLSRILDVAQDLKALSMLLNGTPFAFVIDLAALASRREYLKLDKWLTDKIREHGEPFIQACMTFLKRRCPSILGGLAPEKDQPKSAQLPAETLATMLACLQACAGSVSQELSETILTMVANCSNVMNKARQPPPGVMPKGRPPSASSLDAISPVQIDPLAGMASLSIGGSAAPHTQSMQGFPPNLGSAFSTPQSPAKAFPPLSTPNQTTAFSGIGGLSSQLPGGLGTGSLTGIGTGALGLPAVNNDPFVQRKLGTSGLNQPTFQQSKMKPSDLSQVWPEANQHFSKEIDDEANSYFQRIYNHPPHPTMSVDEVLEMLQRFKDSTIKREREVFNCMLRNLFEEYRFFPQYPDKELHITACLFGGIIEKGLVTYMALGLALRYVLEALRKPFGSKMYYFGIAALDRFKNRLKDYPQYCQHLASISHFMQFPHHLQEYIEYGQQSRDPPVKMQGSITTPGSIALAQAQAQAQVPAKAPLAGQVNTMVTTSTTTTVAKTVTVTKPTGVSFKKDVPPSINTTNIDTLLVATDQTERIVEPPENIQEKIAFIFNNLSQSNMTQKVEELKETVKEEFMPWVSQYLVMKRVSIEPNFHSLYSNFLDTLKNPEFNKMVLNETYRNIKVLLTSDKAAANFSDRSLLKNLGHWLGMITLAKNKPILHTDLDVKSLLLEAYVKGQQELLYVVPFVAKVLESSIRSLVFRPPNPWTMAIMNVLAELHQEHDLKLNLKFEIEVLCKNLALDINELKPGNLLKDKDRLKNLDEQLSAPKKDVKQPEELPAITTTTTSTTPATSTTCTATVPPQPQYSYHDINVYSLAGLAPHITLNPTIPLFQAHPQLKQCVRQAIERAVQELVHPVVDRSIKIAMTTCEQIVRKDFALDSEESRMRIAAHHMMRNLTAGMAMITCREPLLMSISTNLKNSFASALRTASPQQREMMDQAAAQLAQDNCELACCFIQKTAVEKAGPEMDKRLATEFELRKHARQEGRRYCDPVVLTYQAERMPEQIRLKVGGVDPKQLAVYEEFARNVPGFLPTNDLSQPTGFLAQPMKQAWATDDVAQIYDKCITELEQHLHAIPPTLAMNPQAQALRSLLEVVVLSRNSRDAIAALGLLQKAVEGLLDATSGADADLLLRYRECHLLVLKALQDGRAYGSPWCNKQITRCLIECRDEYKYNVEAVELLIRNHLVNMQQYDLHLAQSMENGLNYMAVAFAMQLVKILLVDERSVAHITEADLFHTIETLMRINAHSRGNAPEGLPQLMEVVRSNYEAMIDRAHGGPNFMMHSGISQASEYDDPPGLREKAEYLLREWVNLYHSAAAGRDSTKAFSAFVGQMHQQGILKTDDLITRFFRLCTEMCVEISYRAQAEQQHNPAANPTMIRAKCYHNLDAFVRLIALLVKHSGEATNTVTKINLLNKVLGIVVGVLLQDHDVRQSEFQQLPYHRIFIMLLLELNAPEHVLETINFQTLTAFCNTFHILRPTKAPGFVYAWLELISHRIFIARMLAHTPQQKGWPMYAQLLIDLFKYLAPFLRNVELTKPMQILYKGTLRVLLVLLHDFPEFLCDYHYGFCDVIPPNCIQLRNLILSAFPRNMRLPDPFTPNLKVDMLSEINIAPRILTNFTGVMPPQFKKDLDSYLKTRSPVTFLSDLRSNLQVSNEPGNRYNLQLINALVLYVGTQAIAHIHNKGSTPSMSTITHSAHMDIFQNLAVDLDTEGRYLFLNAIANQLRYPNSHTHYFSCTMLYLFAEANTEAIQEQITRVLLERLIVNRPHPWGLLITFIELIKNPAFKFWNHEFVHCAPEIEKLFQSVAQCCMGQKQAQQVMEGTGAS
UniProt Q6PGD0: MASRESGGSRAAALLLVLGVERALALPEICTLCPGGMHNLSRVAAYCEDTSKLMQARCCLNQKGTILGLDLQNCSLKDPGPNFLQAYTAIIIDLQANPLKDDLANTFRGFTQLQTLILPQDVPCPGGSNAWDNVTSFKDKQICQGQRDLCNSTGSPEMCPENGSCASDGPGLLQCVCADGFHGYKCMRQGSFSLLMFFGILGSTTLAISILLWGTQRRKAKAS

What follows are targets tested with CN[C@@H]1C[C@H]2O[C@@](C)([C@@H]1OC)n1c3ccccc3c3c4c(c5c6ccccc6n2c5c31)C(=O)NC4 [staurosporine] (assay: log2 fold change of pooled soluble protein (PISA), ligand vs vehicle (log2 ratio); higher = more thermally stabilized). Settings: ligand concentration: 20 uM; assay format: PISA pool 52.9/55.5/58.6 C.
With UniProt Q6PER3 the “log2 fold change of pooled soluble protein” value (“log2 fold change” for short) was 0.0708. UniProt Q8BG32 was tested, and the “log2 fold change” value was -0.0651. In the case of UniProt Q78JT3, the “log2 fold change” value is reported as -0.0114. In the case of UniProt Q6P2K6, the “log2 fold change” value is reported as 0.0351. UniProt Q80WW9 was tested, and the “log2 fold change” value was -0.0679. For UniProt Q80XQ2, the “log2 fold change” value was 0.00771. In the case of UniProt Q80VJ3, the “log2 fold change” value is reported as -0.323. For UniProt Q76M72, the “log2 fold change” value was 0.0749. With UniProt Q80Y98 the “log2 fold change” value was -0.0498. UniProt Q6PD19 was tested, and the “log2 fold change” value was 0.112. For UniProt Q7TQH0, the “log2 fold change” value was -0.00309. For UniProt Q8BGB5, the “log2 fold change” value was -0.103. For UniProt Q80VQ0, the “log2 fold change” value was 0.0929. With UniProt Q80U49 the “log2 fold change” value was -0.151. For UniProt Q7TMB8, the “log2 fold change” value was -0.292. UniProt Q6PDY2 was tested, and the “log2 fold change” value was -0.0374. In the case of UniProt Q6PE01, the “log2 fold change” value is reported as 0.129. In the case of UniProt Q6P4T2, the “log2 fold change” value is reported as -0.0962. In the case of UniProt Q6PCP5, the “log2 fold change” value is reported as 0.152. In the case of UniProt Q8BG51, the “log2 fold change” value is reported as 0.0576. UniProt Q80WJ7 was tested, and the “log2 fold change” value was 0.0158. UniProt Q80X80 was tested, and the “log2 fold change” value was -0.0543. With UniProt Q71FD5 the “log2 fold change” value was 0.174. In the case of UniProt Q8BGF3, the “log2 fold change” value is reported as 0.142. In the case of UniProt Q6ZWR6, the “log2 fold change” value is reported as -0.097. UniProt Q6ZQ08 was tested, and the “log2 fold change” value was 0.0132. With UniProt Q7TNG8 the “log2 fold change” value was 0.0655. In the case of UniProt Q7TSI3, the “log2 fold change” value is reported as 0.00672. For UniProt Q711T7, the “log2 fold change” value was 0.0207. For UniProt Q8BGG9, the “log2 fold change” value was 0.0411. For UniProt Q7TSV4, the “log2 fold change” value was 0.0417. For UniProt Q6Y685, the “log2 fold change” value was 0.0405. For UniProt Q7TT50, the “log2 fold change” value was 0.138. For UniProt Q6PGD0, the “log2 fold change” value was 0.104. With UniProt Q78S06 the “log2 fold change” value was -0.3. In the case of UniProt Q8BGC4, the “log2 fold change” value is reported as 0.0613.
